This assay addresses GLH-1(K391A) (C. elegans). In words: affinity purification with mass spectrometry; proteins that co-precipitate with wild-type GLH-1 or GLH-1(K391A) from worms, identified by mass spectrometry; how GLH-1 was precipitated is not told.

Results are given in words; binding and its absence hold for the method and conditions named. Binding seen in cells or lysates may run through a third protein. These calls come from enrichment with a bait or labelling near it, and not all partners need be listed.

B1: PRG-1 (protein, UniProt P90786 1-824)
chain: MASGSGRGRGRGSGSNNSGGKDQKYLGTIQPDLFIRQQGQSKTGSSGQPQKCFANFIPIEMTQSDYSIYQYHVEFEPTVDSKANREKMLRDNNVTDEIGHHFVFDGMILYLKEEWEQNQMIEVQHPIDRSLICIRFKQTNRFLVDDPQTINIFNTIIRRSFDALQLTQLGRNYFNWGDSRAVPDYNMSILPGYETAIRMYEENFMLCVENRFKMVREESMYILFHKELRSCQNNPQRVQEKMNEMYGGTTIITRYNNKLHRYTRLDYSISPLSEFVKDGQSITLKEYFKNQYGIEITVDDQPIIISEGKPKQPGEPPQVSYIVPELCFPTGLTDEMRKDFKMMKEIAKHTRMSPQQRLVESRKLIVDLSKNEKVMECFKYWGISLGQDLANVQARVLKSEPLQGKKTYEGKQAEWARGVKECGIYRGSNMTNWIVIGPGSGNSGLLSQKFIEEARRLGKILQVQLGEPMCVPIRGISPNDYLEGVKGAIKQVDGEDIHMLVVMLADDNKTRYDSLKKFLCVECPIPNQCVNLRTLAGKSKDGGENKNLGSIVLKIVLQMICKTGGALWKVNIPLKNTMIVGYDLYHDSTLKGKTVGACVSTTSNDFTQFYSQTRPHENPTQLGNNLTHFVRKALKQYYDSNDQTLPSRLILYRDGAGDGQIPYIKNTEVKLVRDACDAVTDKAAELSNKVQEKIKLAFIIVTKRVNMRILKQGSSLDNAINPQPGTVVDTTVTRPERMDFYLVPQFVNQGTVTPVSYNIIHDDTDLGPDKHQQLAFKLCHLYYNWQGTVRVPAPCQYAHKLAFLTAQSLHDDANGCLRDKLFFL
In the case of B1, the binding entry is “binds”.

(Values after publication PMC9887883, “A family of C. elegans VASA homologs control Argonaute pathway specificity and promote transgenerational silencing”.)
